In all, about 33,000 sequences were measured (“E-score (-0.5 to 0.5)”: median about -0.0059, highest 2% from about 0.26 on). The list shows a part of the results.
target: T1, Cin5 (UniProt P40917); experiment: PBM E-score (8-mer binding enrichment) (E-score (-0.5 to 0.5)); higher = stronger / more preferred TF binding; conditions: protein concentration: 100 nM; construct: GST-full length
T1 sequence: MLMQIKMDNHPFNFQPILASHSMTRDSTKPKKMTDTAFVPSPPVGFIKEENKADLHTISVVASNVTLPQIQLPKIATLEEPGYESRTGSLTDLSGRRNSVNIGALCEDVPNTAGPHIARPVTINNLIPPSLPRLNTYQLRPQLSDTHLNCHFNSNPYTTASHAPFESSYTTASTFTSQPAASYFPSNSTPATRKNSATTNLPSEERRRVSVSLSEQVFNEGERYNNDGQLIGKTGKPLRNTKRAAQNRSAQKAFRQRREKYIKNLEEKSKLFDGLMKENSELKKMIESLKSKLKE
Experimental: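 Universal 'all 10-mer' protein binding microarrays (Agilent AMADID 015681) probed with GST-tagged S. cerevisiae TFs (full-length or DBD) made by in vitro transcription/translation (PURExpress), about 100-200 nM. Bound TF was detected with fluorescent anti-GST. Each ungapped 8-mer (which stands for itself and its reverse complement) is scored by the PBM enrichment score (E-score), a modified Wilcoxon-Mann-Whitney statistic from -0.5 to +0.5, computed with the Universal PBM Analysis Suite. Scale: above 0.35 generally sequence-specific binding.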

| Sequence | PBM E-score |
| --- | --- |
| AGTCAAGC | -0.0384 |
| CGATGGTA | 0.025 |
| CAAAGGAC | -0.217 |
| ATTTTTAA | 0.176 |
| TCGCAAAA | 0.156 |
| GGCGATAC | -0.0061 |
| TCGCTCAA | 0.176 |
| TCGCGACA | 0.108 |
| CCAGGGGA | -0.253 |
| CTTACCGA | 0.0713 |
| AAGCATGA | 0.0253 |
| AATGATGA | 0.236 |
| CTGGGATA | -0.0527 |
| AGAATTTA | 0.126 |
| TCGTTTAA | 0.0513 |
| AGCCACCA | -0.134 |
| ATATATAG | 0.26 |
| TCTAATAA | 0.0206 |
| ACGTATGC | 0.0624 |
| ATTGAGGA | 0.0445 |
| AAGGGTGG | -0.117 |
| ACACAGTG | 0.128 |
| TAAGAACA | 0.29 |
| GTTCTTTA | 0.103 |
| GATCAACC | 0.0375 |

| Sequence | PBM E-score |
| --- | --- |
| ATTCATGC | 0.103 |
| GTTCGCTA | -0.0567 |
| AGCAACGA | 0.125 |
| ACCCTGAA | -0.0938 |
| GATACGCA | 0.0118 |
| GAGCAGGA | -0.0677 |
| GGCAAGAA | 0.00176 |
| GGGGCACA | -0.188 |
| ATAGGGAC | -0.15 |
| GCGTTGCA | -0.11 |
| AAAGCCTG | -0.165 |
| TAGGCCTA | -0.00462 |
| GCCTCGAA | -0.0384 |
| ACTGGAGG | -0.0319 |
| GCCGCGCC | -0.199 |
| GCTACCAA | -0.191 |
| AGATAGTG | 0.0979 |
| CCTAGAAG | -0.212 |
| CTGAATTC | 0.048 |
| ACTCTGGA | 0.177 |
| AGGCTTCA | -0.167 |
| ATGTTCCA | 0.0609 |
| CCACCACG | -0.0848 |
| GCCAAGCC | -0.174 |
| AACCTCAC | -0.124 |

| Sequence | PBM E-score |
| --- | --- |
| CCAGTCTC | -0.217 |
| ACGGATTA | 0.066 |
| AATGTGAA | 0.134 |
| TCGTACCA | 0.0222 |
| ACTGCGCT | 0.129 |
| CTAAACCA | -0.118 |
| ATATCATC | 0.243 |
| GGGTCGGA | -0.331 |
| ACTGGTGG | -0.091 |
| GAACCTCA | -0.156 |
| CGAGTGTC | -0.108 |
| GTGGACAA | 0.212 |
| AAGGGTCC | -0.276 |
| CTATTACA | 0.181 |
| TAAGCCCA | 0.219 |
| AACGTCCC | -0.12 |
| CGATCGCC | 0.0437 |
| CCAGCTAC | -0.126 |
| AAAGGAGC | -0.19 |
| CACGCTAC | -0.134 |
| GAAGTACA | 0.0442 |
| ACTAGCCA | -0.00477 |
| AAGACTCC | -0.257 |
| CAGCTTTA | 0.118 |
| AGCGCCTA | -0.00036 |

| Sequence | PBM E-score |
| --- | --- |
| CGGGTGTC | -0.00474 |
| GGGTTTCA | 0.0671 |
| GCCGGATA | 0.0793 |
| CGCGCTAC | 0.029 |
| GGTCCCGA | -0.22 |
| ATAGCCTC | -0.104 |
| AAACTTGG | 0.111 |
| TGTCAACA | 0.029 |
| ACTCGGTG | -0.146 |
| ATGTAACC | 0.0651 |
| CAGACAAC | 0.0843 |
| CTCTTTCC | -0.157 |
| ACACGGAG | -0.0287 |
| CCTACTGA | 0.034 |
| GAAGCCTC | -0.202 |
| TGAGTCCA | -0.11 |
| AATGATGT | 0.148 |
| AACTACAA | 0.165 |
| AGTTCCGG | 0.0429 |
| GCCTTACC | -0.233 |
| GGTGCGGA | 0.0778 |
| GCACCGTA | 0.059 |
| CGCACAAA | 0.205 |
| ACGAACCT | -0.0286 |
| ATTCGGAA | 0.13 |

A few values from the list.
In PBM E-score, CTGGGATA shows -0.0527
In PBM E-score, AAGGGTCC shows -0.276
In PBM E-score, ACTCTGGA shows 0.177
In PBM E-score, CTAAACCA shows -0.118
In PBM E-score, CGATGGTA shows 0.025

Continuation:

| Sequence | PBM E-score |
| --- | --- |
| CTAGTATA | 0.0284 |
| AGGGTACT | -0.105 |
| ATCCAGCG | 0.137 |
| ACTCAGAG | 0.0366 |
| TAGACATA | 0.00513 |
| AGACTCAT | 0.00954 |
| ATTCGGGG | 0.0248 |
| CACCTGAC | -0.0148 |
| ATAAGCTG | 0.179 |
| CGGCTCCC | -0.256 |
| CGCGCTTC | -0.0491 |
| CAAGTGGC | 0.173 |
| GCCAAGAA | -0.00914 |
| TCTCAAAA | 0.0986 |
| GGTTAGGA | -0.246 |
| AACCATAT | 0.17 |
| CGGAGCGA | 0.157 |
| GGAGTAAA | 0.232 |
| ATCGCGCC | 0.16 |
| AACAGCTT | 0.0565 |
| CTATACAC | -0.0555 |
| AGAGGACG | -0.0674 |
| CTACTTGC | 0.0723 |
| CCTGCCAA | -0.163 |
| TATCTCCA | 0.112 |

| Sequence | PBM E-score |
| --- | --- |
| AGTGCTAG | 0.00775 |
| ACTACCCC | -0.163 |
| AATCTGTC | 0.163 |
| GTGAACAA | 0.0903 |
| ACGATACA | 0.0211 |
| AAAGACGC | -0.158 |
| ACGCTTGC | -0.182 |
| AAACAGGG | -0.0266 |
| ACCCCGAA | 0.115 |
| AAGTCCTA | -0.218 |
| AACTAGCT | 0.0322 |
| ATGCGTTC | 0.0798 |
| ATCGGAGA | 0.00253 |
| GAACGGCC | -0.155 |
| TGTAAAAA | 0.0501 |
| AACGCTGA | -0.024 |
| CAGGATGA | 0.0756 |
| CCTATCAA | 0.112 |
| CAGCGGCG | 0.109 |
| TACTTAAA | 0.0272 |
| CGCAGGAA | -0.0665 |
| AGCAAAAG | -0.109 |
| CCTAGAAA | -0.0202 |
| AAGTGTAT | -0.00912 |
| CTCGATAC | 0.14 |

| Sequence | PBM E-score |
| --- | --- |
| CGCCGCAA | 0.0347 |
| CGATTGCC | -0.0466 |
| AGTGCACG | -0.0877 |
| AGGTTTTA | -0.128 |
| CAATATGC | 0.112 |
| ATCGCGTC | 0.144 |
| CGCTCCTA | -0.0856 |
| ACTTGACT | -0.0326 |
| ACCAGTTG | -0.0739 |
| CTAGTCTA | -0.181 |
| TCCCTGAA | -0.0382 |
| AAATTCGT | 0.256 |
| AACTCTAT | -0.00975 |
| ACTACTAA | 0.177 |
| CCCGGTAA | -0.128 |
| AATCTTTA | -0.014 |
| CGTGTAAA | -0.142 |
| AAAAGCTC | 0.0134 |
| CCTTGGTC | -0.209 |
| CTATAGAG | -0.0767 |
| CGCCACGC | -0.274 |
| AACCAGGA | -0.00079 |

From the supplement of paper PMC3334620
